Experimental data as given in patent US11414436B2, “Non-coordinating anion type activators containing cation having large alkyl groups” (ExxonMobil Chemical Patents Inc., priority 2018, dated 2022).
Values joined by “and” are separate entries in the source; they are usually repeats but may differ in a detail not shown here. Identical values can stand only once.

Key:
[1] = RUN B: ethylene-octene polymerization in parallel pressure reactor, activator diluent toluene or methylcyclohexane; settings: polymer weight, ethylene-octene copolymerization, Cat 1 (MCN-1)
Procedure: RUN B: Polymerization in Parallel Pressure Reactor.
A series of ethylene-octene polymerizations were performed in the parallel pressure reactor according to the procedure described above. […] In a typical experiment an automated syringe was used to introduce into the reactor the following reagents, if utilized, in the following order: isohexane (0.35 mL), an isohexane solution of TNOAL scavenger (0.005 M, 60 μL), additional isohexane (0.35 mL), a toluene solution of the respective polymerization catalyst (150 μL, 0.4 mM, 20 nm [cat]/100 μL [toluene]), additional isohexane (0.35 mL), a toluene or methylcyclohexane solution of the respective activator (150 μL, 0.4 mM, (20 nm [act]/100 μL[ diluent])), then additional isohexane so that the total solvent volume for each run was 5 mL. Catalyst and activator were used in a 1:1 ratio. Each reaction was performed at a specified temperature range between 50 and 120° C., typically 95° C., while applying about 100 psig of ethylene (monomer) gas. Each reaction was allowed to run for about 1 hour (˜3600 seconds) or until approximately 20 psig of ethylene gas uptake was observed, at which point the reactions were quenched with air (˜300 psig). When sufficient polymer yield was attained (e.g., at least ˜10 mg), the polyethylene product was analyzed by Rapid GPC, described below.
In a typical experiment, the anilinium borate activators were combined with toluene or methylcyclohexane as diluent and introduced to the parallel, pressure reactor via syringe. By this mechanism of activator introduction, only well dissolved activators could be delivered to the reactor providing a means to discriminate between the polymerization performance of long chain soluble anilinium borates vs. conventional anilinium borates. Following addition of activator, the catalyst Cat 1 was introduced, via syringe as well-dissolved toluene solution and the polymerization was conducted per the methodology described above.

[2] = FT-IR of polymer product (wt % octene / ethylene); settings: ethylene-octene copolymer, Cat 1 (MCN-1)
[3] = Rapid GPC of polymer product (Mw, Mn, PDI); settings: for Average Mn / Average Mw / Average Mz / Average Mw/Mn: ethylene-octene copolymer, Cat 1 (MCN-1); for Mn (g/mol) / Mw (g/mol): polypropylene, MCN-1, 85° C.
[4] = activator diluent MeCy (methylcyclohexane)
[5] = activator diluent Toluene, listed as C2
[6] = Activator Equiv 1.0, TNOAL 0.25 umol
[7] = Activator Equiv 1.0, TNOAL 0.50 umol
[8] = Activator Equiv 1.0, TNOAL 0.75 umol
[9] = Activator Equiv 1.2, TNOAL 0.25 umol
[10] = Activator Equiv 1.2, TNOAL 0.50 umol
[11] = Activator Equiv 1.2, TNOAL 0.75 umol
[12] = Activator Equiv 1.4, TNOAL 0.25 umol
[13] = Activator Equiv 1.4, TNOAL 0.50 umol
[14] = Activator Equiv 1.4, TNOAL 0.75 umol
[15] = Activator Equiv 1.6, TNOAL 0.25 umol
[16] = Activator Equiv 1.6, TNOAL 0.50 umol
[17] = Activator Equiv 1.6, TNOAL 0.75 umol
[18] = activator diluent Toluene, listed as C1

Compound	Weights [1, 4]	Weights ([1]; activator diluent Toluene)	mol % 1-octene [2, 4]	wt % 1-octene [2, 4]	mol % 1-octene ([2]; activator diluent Toluene)	wt % 1-octene ([2]; activator diluent Toluene)	Mn (g/mol) [3, 6]	Mw (g/mol) [3, 6]	Mn (g/mol) [3, 7]	Mw (g/mol) [3, 7]	Mn (g/mol) [3, 8]	Mw (g/mol) [3, 8]	Mn (g/mol) [3, 9]	Mw (g/mol) [3, 9]	Mn (g/mol) [3, 10]	Mw (g/mol) [3, 10]	Mn (g/mol) [3, 11]	Mw (g/mol) [3, 11]	Mn (g/mol) [3, 12]	Mw (g/mol) [3, 12]	also measured
CCCCCCCCCCCCCCCCCC[NH+](C)c1ccc(CCCC)cc1.Fc1c(F)c(F)c2c(F)c([B-](c3c(F)c(F)c4c(F)c(F)c(F)c(F)c4c3F)(c3c(F)c(F)c4c(F)c(F)c(F)c(F)c4c3F)c3c(F)c(F)c4c(F)c(F)c(F)c(F)c4c3F)c(F)c(F)c2c1F [LCSA 1]	0.073 g and 0.077 g and 0.082 g	0.082 g and 0.08 g and 0.086 g and 0.085 g	8.9 mol % and 10.7 mol % and 9.8 mol % and 9.9 mol %	28 wt % and 32 wt % and 30 wt % and 31 wt %	9.4 mol % and 9.5 mol % and 9.1 mol % and 10.3 mol %	29 wt % and 30 wt % and 31 wt %	–	–	–	–	–	–	–	–	–	–	–	–	–	–	–
N,N-dimethylanilinium tetrakis(heptafluoronaphthalen-2-yl)borate [DMAH-BF28, reference compound]	0 g	–	0.0 mol %	–	–	–	68,378 g/mol and 80,712 g/mol	139,625 g/mol and 152,003 g/mol	100,295 g/mol and 102,408 g/mol	176,336 g/mol and 192,634 g/mol	124,675 g/mol and 125,425 g/mol	197,124 g/mol and 222,459 g/mol	67,691 g/mol and 65,705 g/mol	134,516 g/mol and 158,859 g/mol	84,581 g/mol and 84,798 g/mol	148,426 g/mol and 155,759 g/mol	110,164 g/mol and 100,660 g/mol	185,475 g/mol and 181,659 g/mol	70,008 g/mol and 66,816 g/mol	139,249 g/mol and 145,757 g/mol	Weights [1, 5]: 0.076 g and 0.08 g and 0.083 g and 0.078 g; Average Mn [3, 5]: 249183 g/mol and 207640 g/mol and 225367 g/mol and 252497 g/mol; Average Mw [3, 5]: 461835 g/mol and 433633 g/mol and 449360 g/mol and 456293 g/mol; Average Mz [3, 5]: 1140095 g/mol and 1123865 g/mol and 1096197 g/mol and 996515 g/mol; Mn (g/mol) [3, 13]: 71,584 g/mol and 80,613 g/mol; Mw (g/mol) [3, 13]: 136,225 g/mol and 152,797 g/mol; Mn (g/mol) [3, 14]: 92,645 g/mol and 113,934 g/mol; Mw (g/mol) [3, 14]: 157,862 g/mol and 192,254 g/mol; Mn (g/mol) [3, 15]: 59,107 g/mol; Mw (g/mol) [3, 15]: 125,607 g/mol; Mn (g/mol) [3, 16]: 88,755 g/mol and 83,513 g/mol; Mw (g/mol) [3, 16]: 157,116 g/mol and 166,442 g/mol; Mn (g/mol) [3, 17]: 90,031 g/mol and 106,799 g/mol; Mw (g/mol) [3, 17]: 161,904 g/mol and 167,856 g/mol; mol % 1-octene [2, 5]: 7.4 mol % and 8.7 mol % and 9.1 mol % and 9.5 mol %; wt % 1-octene [2, 5]: 24 wt % and 28 wt % and 29 wt % and 30 wt %
CCCCCCCCCCCCCCCCCCc1ccc([NH+](CCCCCCCCCCCCCCCCCC)CCCCCCCCCCCCCCCCCC)cc1.Fc1c(F)c(F)c2c(F)c([B-](c3c(F)c(F)c4c(F)c(F)c(F)c(F)c4c3F)(c3c(F)c(F)c4c(F)c(F)c(F)c(F)c4c3F)c3c(F)c(F)c4c(F)c(F)c(F)c(F)c4c3F)c(F)c(F)c2c1F [LCSA 3]	0.077 g and 0.076 g and 0.08 g	0.077 g and 0.078 g and 0.075 g	9.8 mol % and 8.4 mol % and 9.4 mol % and 9.0 mol %	30 wt % and 27 wt % and 29 wt % and 28 wt %	10.8 mol % and 9.2 mol % and 10.2 mol % and 9.1 mol %	33 wt % and 29 wt % and 31 wt %	–	–	–	–	–	–	–	–	–	–	–	–	–	–	Average Mn [3, 4]: 268267 g/mol and 240403 g/mol and 250558 g/mol and 275944 g/mol; Average Mw [3, 4]: 480296 g/mol and 464198 g/mol and 476571 g/mol and 503106 g/mol; Average Mw/Mn [3, 4]: 1.8 and 1.9; Average Mz [3, 4]: 1201763 g/mol and 1148933 g/mol and 1140387 g/mol and 1151742 g/mol; Average Mn ([3]; activator diluent Toluene): 262066 g/mol and 257358 g/mol and 239953 g/mol and 273074 g/mol; Average Mw ([3]; activator diluent Toluene): 472959 g/mol and 492586 g/mol and 458672 g/mol and 503018 g/mol; Average Mw/Mn ([3]; activator diluent Toluene): 1.8 and 1.9; Average Mz ([3]; activator diluent Toluene): 1118519 g/mol and 1230830 g/mol and 1105198 g/mol and 1214488 g/mol
CCCCCCCCCCCCCCCCCC[NH+](CCCCCCCCCCCCCCCCCC)c1ccc(C)cc1.Fc1c(F)c(F)c2c(F)c([B-](c3c(F)c(F)c4c(F)c(F)c(F)c(F)c4c3F)(c3c(F)c(F)c4c(F)c(F)c(F)c(F)c4c3F)c3c(F)c(F)c4c(F)c(F)c(F)c(F)c4c3F)c(F)c(F)c2c1F [DOdTH-BF28, 4-methyl-N,N-dioctadecylbenzenaminium-BF28]	–	–	–	–	–	–	83,444 g/mol and 87,492 g/mol and 103,537 g/mol	188,839 g/mol and 154,334 g/mol and 173,588 g/mol	110,353 g/mol and 114,822 g/mol and 119,524 g/mol	190,969 g/mol and 196,386 g/mol and 208,080 g/mol	143,333 g/mol and 121,586 g/mol and 126,136 g/mol	226,642 g/mol and 211,247 g/mol and 230,616 g/mol	95,218 g/mol and 104,639 g/mol and 109,235 g/mol	176,664 g/mol and 187,424 g/mol and 174,900 g/mol	94,722 g/mol and 108,882 g/mol and 107,193 g/mol	173,395 g/mol and 195,598 g/mol and 200,253 g/mol	118,996 g/mol and 112,323 g/mol and 114,309 g/mol	203,343 g/mol and 210,208 g/mol and 206,059 g/mol	98,035 g/mol and 94,337 g/mol and 107,426 g/mol	167,636 g/mol and 174,709 g/mol and 191,143 g/mol	Mn (g/mol) [3, 13]: 123,022 g/mol and 95,683 g/mol and 125,870 g/mol; Mw (g/mol) [3, 13]: 196,454 g/mol and 174,763 g/mol and 205,013 g/mol; Mn (g/mol) [3, 14]: 127,814 g/mol and 117,540 g/mol and 122,219 g/mol; Mw (g/mol) [3, 14]: 214,283 g/mol and 224,513 g/mol and 206,568 g/mol; Mn (g/mol) [3, 15]: 101,216 g/mol and 89,708 g/mol; Mw (g/mol) [3, 15]: 168,522 g/mol and 169,691 g/mol; Mn (g/mol) [3, 16]: 108,279 g/mol and 118,888 g/mol and 131,023 g/mol; Mw (g/mol) [3, 16]: 183,663 g/mol and 206,818 g/mol and 205,178 g/mol; Mn (g/mol) [3, 17]: 107,663 g/mol and 126,310 g/mol and 126,062 g/mol; Mw (g/mol) [3, 17]: 188,187 g/mol and 213,453 g/mol and 213,401 g/mol
CCCCCCCCCCCCCCCCCCc1ccc([NH+](C)CCCCCCCCCCCCCCCCCC)cc1.Fc1c(F)c(F)c2c(F)c([B-](c3c(F)c(F)c4c(F)c(F)c(F)c(F)c4c3F)(c3c(F)c(F)c4c(F)c(F)c(F)c(F)c4c3F)c3c(F)c(F)c4c(F)c(F)c(F)c(F)c4c3F)c(F)c(F)c2c1F [LCSA 2]	0.082 g and 0.079 g and 0.085 g and 0.083 g	0.082 g and 0.08 g and 0.083 g	9.9 mol % and 9.8 mol % and 10.0 mol % and 9.6 mol %	31 wt % and 30 wt %	11.2 mol % and 8.7 mol % and 10.6 mol % and 9.4 mol %	34 wt % and 27 wt % and 32 wt % and 29 wt %	–	–	–	–	–	–	–	–	–	–	–	–	–	–	Average Mn [3, 4]: 247443 g/mol and 208306 g/mol and 228204 g/mol and 220570 g/mol; Average Mw [3, 4]: 467956 g/mol and 398860 g/mol and 432196 g/mol and 416185 g/mol; Average Mw/Mn [3, 4]: 1.9; Average Mz [3, 4]: 1216060 g/mol and 882745 g/mol and 1015931 g/mol and 967860 g/mol; Average Mn ([3]; activator diluent Toluene): 230389 g/mol and 211253 g/mol and 194469 g/mol and 215969 g/mol; Average Mw ([3]; activator diluent Toluene): 425784 g/mol and 440430 g/mol and 392292 g/mol and 444320 g/mol; Average Mw/Mn ([3]; activator diluent Toluene): 1.8 and 2.1 and 2.0; Average Mz ([3]; activator diluent Toluene): 1007444 g/mol and 1206377 g/mol and 948798 g/mol and 1166464 g/mol
N,N-Dimethylanilinium tetrakis(pentafluorophenyl)borate [DMAH-BF20, reference compound]	–	–	0.0 mol %	–	–	–	–	–	–	–	–	–	–	–	–	–	–	–	–	–	Weights [1, 18]: 0.09 g and 0.087 g and 0.093 g; Average Mn [3, 18]: 101493 g/mol and 104035 g/mol and 101561 g/mol and 98530 g/mol; Average Mw [3, 18]: 227087 g/mol and 226021 g/mol and 220280 g/mol and 224056 g/mol; Average Mz [3, 18]: 676006 g/mol and 634408 g/mol and 708241 g/mol and 641515 g/mol; mol % 1-octene [2, 18]: 10.0 mol % and 9.5 mol % and 8.8 mol % and 9.1 mol %; wt % 1-octene [2, 18]: 31 wt % and 30 wt % and 28 wt % and 29 wt %
